These are yes or no findings as the source states them, for the method shown. Binding seen in cells or lysates may run through a third protein. Some entries that bind do so weakly or less than the wild type.
Tests used:
Biotin-GTGKT peptide [1] = biological target: T1, Biotin-GTGKT peptide; assay: co-IP; biotin-GTGKT peptide (10 uM) brought into Malme3M^R-Taxol cells for 48 h; whole-cell extracts incubated with anti-biotin antibody (2 ug/ml) 12 h at 4 C, precipitated with streptavidin-linked agarose beads, Western blot; only the target purified
T1 sequence (peptide, biotin): GTGKT

Chains of the proteins cited; added tags and fusions are not shown.
UniProt P49841: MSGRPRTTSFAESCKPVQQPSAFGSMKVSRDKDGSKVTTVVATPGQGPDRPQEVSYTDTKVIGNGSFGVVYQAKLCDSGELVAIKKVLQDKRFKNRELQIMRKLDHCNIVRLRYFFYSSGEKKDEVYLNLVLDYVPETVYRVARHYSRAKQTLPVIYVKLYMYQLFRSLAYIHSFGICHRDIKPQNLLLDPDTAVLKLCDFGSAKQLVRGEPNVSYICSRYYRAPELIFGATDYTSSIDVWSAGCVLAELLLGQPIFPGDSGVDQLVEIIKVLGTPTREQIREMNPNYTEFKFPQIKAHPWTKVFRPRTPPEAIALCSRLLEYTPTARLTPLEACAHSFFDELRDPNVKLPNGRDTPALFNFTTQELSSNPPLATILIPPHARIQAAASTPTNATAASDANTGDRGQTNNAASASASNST
UniProt Q86TM3: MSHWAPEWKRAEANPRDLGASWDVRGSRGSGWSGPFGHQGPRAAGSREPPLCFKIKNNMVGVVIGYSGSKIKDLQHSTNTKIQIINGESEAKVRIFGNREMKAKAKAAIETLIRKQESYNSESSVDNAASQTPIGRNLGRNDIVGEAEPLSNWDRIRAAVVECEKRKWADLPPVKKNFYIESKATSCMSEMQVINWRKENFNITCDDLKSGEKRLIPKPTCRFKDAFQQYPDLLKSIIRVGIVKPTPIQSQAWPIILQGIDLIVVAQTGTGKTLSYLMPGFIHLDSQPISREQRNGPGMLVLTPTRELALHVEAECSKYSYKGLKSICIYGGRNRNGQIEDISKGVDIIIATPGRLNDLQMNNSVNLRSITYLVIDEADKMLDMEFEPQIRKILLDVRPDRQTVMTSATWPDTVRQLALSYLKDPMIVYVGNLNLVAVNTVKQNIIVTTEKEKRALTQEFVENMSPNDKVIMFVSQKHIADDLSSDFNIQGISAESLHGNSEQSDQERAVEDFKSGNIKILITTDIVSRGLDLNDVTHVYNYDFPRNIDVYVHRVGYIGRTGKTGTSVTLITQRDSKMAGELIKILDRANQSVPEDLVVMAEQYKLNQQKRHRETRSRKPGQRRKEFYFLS

Biotin-GTGKT peptide [2] = biological target: T1, Biotin-GTGKT peptide; assay: co-IP; printed as '(data shown)'; biotin-labeled GTGKT peptide in Malme3M^R cells; only the target purified
Biotin-GTGKT peptide [3] = biological target: T1, Biotin-GTGKT peptide; assay: co-IP; Malme3M cells transfected with full-length CAGE or each CAGE deletion construct, then treated with GTGKT peptide (Supplementary Figure 5A); only the target purified
[4] = biological target: GSK3β, endogenous (human (endogenous in Malme3M^R, SNU387^R, Malme3M)) (UniProt P49841); assay: co-IP; Malme3M cells transiently transfected with each CAGE construct (1 ug), lysates 48 h after transfection; antibody 2 ug/ml
[5] = biological target: GSK3β, endogenous (human (endogenous in Malme3M^R, SNU387^R, Malme3M)) (UniProt P49841); assay: co-IP; endogenous proteins, lysates of Malme3M^R, SNU387^R or Malme3M^R-Taxol cells treated with the indicated peptide (10 uM) for 48 h; antibody 2 ug/ml
[6] = biological target: GSK3β, endogenous (human (endogenous in Malme3M^R, SNU387^R, Malme3M)) (UniProt P49841); assay: co-IP; data not shown; endogenous proteins in SNU387^R cells
[7] = biological target: GSK3β, endogenous (human (endogenous in Malme3M^R, SNU387^R, Malme3M)) (UniProt P49841); assay: co-IP; endogenous proteins, cell lysates (Malme3M^R; also Malme3M transfected with miR-200b inhibitor); 50 mM HEPES pH 7.6, 150 mM NaCl, 5 mM EDTA, 0.1% Nonidet P-40; antibody 2 ug/ml, protein A/G-Sepharose, 4 C
[8] = biological target: GSK3β, endogenous (human (endogenous in Malme3M^R, SNU387^R, Malme3M)) (UniProt P49841); assay: co-IP; lysates of xenograft or lung-metastasis tumours (Malme3M^R, SNU387^R) from nude mice injected with peptide (10 or 50 ug/mouse); antibody 2 ug/ml

| binding (Biotin-GTGKT peptide [1]) | binding (Biotin-GTGKT peptide [2]) | binding (Biotin-GTGKT peptide [3]) | binding [4] | binding [5] | binding [6] | binding [7] | binding [8] | Substance |
| --- | --- | --- | --- | --- | --- | --- | --- | --- |
| no binding (tested: 10 μM) | no binding | no binding | – | – | – | – | – | GSK3β, endogenous (from UniProt P49841 1-420) |
| – | – | binds | binds | – | – | – | – | Full-length wild type CAGE (G-T-G-K-T), transfected construct (from UniProt Q86TM3 1-631) |
| binds | binds | – | – | binds | binds | binds | binds | CAGE (cancer/testis antigen CAGE), endogenous (from UniProt Q86TM3 1-631) |
